PubChem BioAssay AID1259424 – University of Nebraska Medical Center – 2018
Test: 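Seek colon cancer survival genes behaving like KSR1, using a six-gene signature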 (primary screen). Cell system: human HCT116 colon cancer cells. Reagents: siRNA pool against human genes, 50 nM. Detection: 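Log2 levels of six mRNAs (branched-DNA multiplex), adjusted by two reference genes and the non-targeting median, then scored against the average KSR1 knockdown pattern as Pearson r and euclidean distance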. Scale: mean correlation with KSR1 profile and KSR1 correlation: higher = expression change more like KSR1 knockdown; mean distance from KSR1 profile: higher = expression change less like KSR1 knockdown.
The whole screen tested about 14,000 reagents; shown is a part drawn at random. 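Higher correlation or smaller distance means closer resemblance to KSR1 loss; control wells, including KSR1 knockdowns, recur on many plates.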 Not all columns of the deposit are shown. Not given: the time to read-out.

target gene | PubChem SID | mean correlation with KSR1 profile | mean distance from KSR1 profile | KSR1 correlation, replicate 1
PHKA2 (phosphorylase kinase regulatory subunit alpha 2) | SID363991624 | 0.226 | 2.25 | 0.404
B4GALT7 (beta-1,4-galactosyltransferase 7) | SID363997946 | 0.181 | 2.62 | 0.163
HR (HR lysine demethylase and nuclear receptor corepressor) | SID363996075 | 0.182 | 1.91 | 0.431
APH1A (aph-1A gamma-secretase subunit) | SID363999801 | -0.396 | 1.47 | -0.398
PDGFRA (platelet derived growth factor receptor alpha) | SID363997031 | 0.323 | 1.83 | 0.226
PYCR1 (pyrroline-5-carboxylate reductase 1) | SID363997662 | 0.364 | 1.84 | 0.291
JPT2 (Jupiter microtubule associated homolog 2) | SID364004615 | 0.799 | 2.5 | 0.784
FCRL5 (Fc receptor like 5) | SID364003570 | 0.0259 | 1.43 | -0.00432
KRT23 (keratin 23) | SID363999543 | 0.133 | 1.37 | 0.394
HNRNPA1 (heterogeneous nuclear ribonucleoprotein A1) | SID364003544 | -0.473 | 4.52 | -0.48
IGSF9 (immunoglobulin superfamily member 9) | SID364001830 | 0.754 | 1.88 | 0.796
EWSR1 (EWS RNA binding protein 1) | SID363996164 | -0.596 | 2.8 | -0.487
ZG16B (zymogen granule protein 16B) | SID364004658 | 0.449 | 2.76 | 0.667
KCNS3 | SID363993451 | -0.58 | 2.18 | -0.622
UGT2B15 (UDP glucuronosyltransferase family 2 member B15) | SID363992373 | -0.0405 | 1.73 | -0.0563
HTR3B (5-hydroxytryptamine receptor 3B) | SID363996879 | -0.0222 | 3.36 | 0.379
CIAO3 (cytosolic iron-sulfur assembly component 3) | SID364002478 | 0.119 | 0.969 | 0.0182
GYPE (glycophorin E (MNS blood group)) | SID363993309 | -0.441 | 2.04 | -0.733
ULK4 (unc-51 like kinase 4) | SID364005633 | 0.806 | 2.49 | 0.897
LRRC32 (leucine rich repeat containing 32) | SID363996413 | -0.439 | 3.16 | -0.56
BBS4 (Bardet-Biedl syndrome 4) | SID364004286 | -0.287 | 1.85 | -0.392
ELL (elongation factor for RNA polymerase II) | SID363997326 | -0.251 | 2.67 | -0.187
SRRM1 (serine and arginine repetitive matrix 1) | SID363996714 | 0.0471 | 0.898 | -0.00076
HOXB6 (homeobox B6) | SID364001279 | -0.0417 | 4.19 | 0.221
LGMN (legumain) | SID363996501 | 0.2 | 1.47 | -0.0135
MRPL9 (mitochondrial ribosomal protein L9) | SID364003607 | -0.618 | 1.69 | -0.699
GIP (gastric inhibitory polypeptide) | SID363995133 | 0.46 | 0.988 | 0.233
LRCH3 | SID364004161 | 0.733 | 1.44 | 0.525
ZNF322 (zinc finger protein 322) | SID364002937 | 0.564 | 3.34 | 0.601
TNC (tenascin C) | SID363993364 | 0.514 | 2.77 | 0.573
GMPPA (GDP-mannose pyrophosphorylase A) | SID363998445 | 0.807 | 1.98 | 0.696
MOCOS (molybdenum cofactor sulfurase) | SID364000666 | -0.654 | 1.87 | -0.614
DNAJC5 (DnaJ heat shock protein family (Hsp40) member C5) | SID364003323 | 0.774 | 0.872 | 0.29
TAF4B (TATA-box binding protein associated factor 4b) | SID364005351 | 0.319 | 1.15 | 0.717

2 entries from above, limited to “mean correlation with KSR1 profile”:
HR (HR lysine demethylase and nuclear receptor corepressor) [SID363996075]	0.182
APH1A (aph-1A gamma-secretase subunit) [SID363999801]	-0.396
